Data taken from patent US20210290612A1.
These are yes or no findings as the source states them, for the method shown. In cells and extracts the contact can be indirect. Some entries that bind do so weakly or less than the wild type. Tags and fused reporters may be left off the sequences shown.

By UniProt entry, the sequences of proteins in these tests, tags left out. Where a name states a change or a piece, a line headed by the entry shows the natural chain unless it says otherwise.
UniProt Q86VP3: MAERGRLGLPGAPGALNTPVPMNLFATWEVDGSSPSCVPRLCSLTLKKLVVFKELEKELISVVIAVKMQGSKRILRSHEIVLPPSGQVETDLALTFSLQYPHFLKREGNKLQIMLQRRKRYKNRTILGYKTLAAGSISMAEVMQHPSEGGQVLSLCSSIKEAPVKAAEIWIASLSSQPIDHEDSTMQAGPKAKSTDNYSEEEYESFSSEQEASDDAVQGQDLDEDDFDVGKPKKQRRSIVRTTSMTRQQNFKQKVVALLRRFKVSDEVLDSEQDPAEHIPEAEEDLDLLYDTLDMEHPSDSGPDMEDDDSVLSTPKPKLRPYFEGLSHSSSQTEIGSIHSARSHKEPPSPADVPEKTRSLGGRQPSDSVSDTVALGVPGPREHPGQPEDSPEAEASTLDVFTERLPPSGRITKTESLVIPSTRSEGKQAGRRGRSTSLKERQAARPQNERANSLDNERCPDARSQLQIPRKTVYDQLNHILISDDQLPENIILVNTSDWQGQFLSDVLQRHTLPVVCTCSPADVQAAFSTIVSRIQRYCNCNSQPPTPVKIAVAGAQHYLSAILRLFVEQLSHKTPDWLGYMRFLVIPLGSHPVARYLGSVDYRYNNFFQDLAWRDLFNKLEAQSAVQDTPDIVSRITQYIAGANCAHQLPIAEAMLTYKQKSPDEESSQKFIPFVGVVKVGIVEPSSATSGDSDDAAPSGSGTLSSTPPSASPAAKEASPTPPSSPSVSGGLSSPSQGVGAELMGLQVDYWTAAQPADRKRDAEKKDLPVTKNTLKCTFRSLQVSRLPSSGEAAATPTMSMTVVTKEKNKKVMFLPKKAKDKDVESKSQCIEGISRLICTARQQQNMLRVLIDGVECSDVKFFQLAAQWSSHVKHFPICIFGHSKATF

What was measured:
HA-tagged PACS2 (human) = HA-tagged PACS2 (human) (UniProt Q86VP3); test: co-immunoprecipitation (anti-Flag) from co-transfected HCT116 cells, anti-HA western blot
[1] = target: HA-tagged PACS2^E209K (human) (UniProt Q86VP3); test: as above

B1: Flag-tagged SIRT2 (enzyme, not shown: small tags and cut ends)
chain: MAEPDPSHPLETQAGKVQEAQDSDSDSEGGAAGGEADMDFLRNLFSQTLSLGSQKERLLDELTLEGVARYMQSERCRRVICLVGAGISTSAGIPDFRSPSTGLYDNLEKYHLPYPEAIFEISYFKKHPEPFFALAKELYPGQFKPTICHYFMRLLKDKGLLLRCYTQNIDTLERIAGLEQEDLVEAHGTFYTSHCVSASCRHEYPLSWMKEKIFSEVTPKCEDCQSLVKPDIVFFGESLPARFFSCMQSDFLKVDLLLVMGTSLQVQPFASLISKAPLSTPRLLINKEKAGQSDPFLGMIMGLGGGMDFDSKKAYRDVAWLGECDQGCLALAELLGWKKELEDLVRREHASIDAQSGAGVPNPSTSASPKKSPPPAKDEARTTEREKPQ
In the case of B1, the binding (HA-tagged PACS2 (human)) is reported as “binds” and the binding [1] is reported as “binds”.
